# Laboratory results reported in US5936101A, “Process for the preparation of 1,2-dioxetane compounds and novel sulfur-substituted 1,2-dioxetane compounds as intermediates” (Lumigen, Inc., priority 1997, dated 1999).
# For at least one compound, name, drawing or mass did not settle the structure.
# Experiment: Fluoride (TBAF in DMSO) induced chemiluminescence
# Assay type: physicochemical
# Conditions: excess TBAF in DMSO
smiles,measurement,value
"Oc1cccc(C2(OC(C(F)(F)F)C(F)(F)F)OOC23C2CC4CC(C2)CC3C4)c1 (stereo not shown) [Dioxetane 14, 4-(Hexafluoroisopropoxy)-4-(3-hydroxyphenyl)spiro[1,2-dioxetane-3,2'-tricyclo-[3.3.1.1^3,7]decane]]",chemiluminescence colour,green chemiluminescence
